PubChem BioAssay AID624297 (National Center for Advancing Translational Sciences (NCATS), 2012)
Among all 340,000 compounds or so, about 6,200 (1.8%) were called active. Inconclusive results, whose numbers are uncertain, are shown with a selection of clear calls. Calls follow the shape of the dose curve; as a rule, active = well fitted activation curve with a large enough effect; inconclusive = small, poorly fitted or top-dose-only effect; inactive = no such curve, though single readings can be large or run the other way. Where the call is inconclusive, the potency comes from a doubtful curve fit.

assay: A quantitative high throughput screen for small molecules that induce DNA re-replication in SW480 colon adenocarcinoma cells.; also: nearly all actives have a fitted effect of over 55% in size; as to re-replication activation: % of control where 0% means no effect; conditions: Hoechst DNA content imaging, 48 h; re-replication activation: at 46.1 µM (top of the series) unless noted
In short: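 Hoechst fluorescence of nuclei (405 nm excitation, 500-530 nm emission) measured by plate-scanning imager after 48 hr compound exposure at 37 C; re-replication scored as increased number of nuclei with elevated intensity.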
Potency is read from the fitted curve at half-maximal effect.

| SMILES | Potency | re-replication activation |
| --- | --- | --- |
| CN1CCN(CC(O)COc2ccc(C34CC5CC(CC(C5)C3)C4)cc2)CC1 (stereo not drawn) | inconclusive: 5.8 µM [activator, single point] |  |
| CCc1ccc(N(CC)C(=O)c2ccc3c(Cl)c4c(nc3c2)CCC4)cc1 | inconclusive: 20.6 µM [activator, single point] |  |
| CCc1ccc(C(=O)C(C)CN2CCCCC2)cc1 (stereo not drawn) | inconclusive: 37.6 µM [activator, partial curve, poor fit] |  |
| C(=N\Nc1nn[nH]n1)/c1ccccc1 | inconclusive: 16.4 µM [activator, partial curve, poor fit] |  |
| NC(=O)c1nsc(C(=O)N(c2cccc(F)c2)C(C(=O)NC2CCCC2)c2ccc(O)cc2)c1N (stereo not drawn) |  | inactive: 6.11% |
| O=C(Nc1nc2ccccc2[nH]1)c1ccccc1O | inconclusive: 29.1 µM [activator, single point] |  |
| O=C(NC1CCCC1)C(c1cccnc1)N(Cc1ccc(F)cc1)C(=O)c1csnn1 (stereo not drawn) |  | inactive: -25.3% |
| O=[N+]([O-])c1ccc(NN=CCCc2ccccc2)nc1 | inconclusive: 29.1 µM [activator, single point] |  |
| Nc1cc2c3ccccc3ccc2c2ccccc12 | active: 20.6 µM |  |
| COc1ccc(-c2cc(C(=O)N3CCCCCC3)c3ccccc3n2)cc1 | inconclusive: 25.9 µM [activator, single point] |  |
| C=CCN1CCN(C(=O)c2oc3ccccc3c2C)CC1 | inconclusive: 0.58 µM [activator, partial curve, poor fit] |  |
| Cc1ccc(C)c(NC(=O)C2CCN(S(=O)(=O)c3ccc4c(c3)NC(=O)CO4)CC2)c1 | inconclusive: 25.9 µM [activator, single point] |  |
| CCN(CC)CCCNc1nc2ccccc2c2nc(-c3ccncc3)nn12 | inconclusive: 29.1 µM [activator, single point] |  |
| CCOC(=O)N1CCC(n2c(SCC(=O)Nc3ccccc3OC)nc3ccccc3c2=O)CC1 | inconclusive: 18.4 µM [activator, partial curve, poor fit] |  |
| CCSC(=O)NC1CCCCC1 | inconclusive: 29.1 µM [activator, single point] |  |
| COc1ccc(Cn2c(C3CC3)nc3ccc(NC(=O)c4cccnc4)cc3c2=O)cc1 | inconclusive: 29.1 µM [activator, single point] |  |
| COc1cc2c(cc1OC)C(C)N(C(=O)c1c(-c3ccccc3)noc1C)CC2 (stereo not drawn) | inconclusive: 29.1 µM [activator, single point] |  |
| Cc1cc(C(=O)NNC(=O)Nc2ccc(Cl)cc2)no1 |  | inactive: -12.2% |
| Cc1onc(-c2c(Cl)cccc2Cl)c1C(=O)N1CCN(c2ccccc2F)CC1 | inconclusive: 29.1 µM [activator, partial curve, poor fit] |  |
| O=C(CC1c2ccccc2Oc2ccccc21)NCc1ccco1 | inconclusive: 23.1 µM [activator, single point] |  |
| O=C(Cc1ccccc1[N+](=O)[O-])NNC(=O)c1ccncc1 | inconclusive: 0.366 µM [activator, partial curve, poor fit] |  |
| Oc1cc2c(cc1C(c1ccc(Br)cc1)N1CCCC1)OCO2 (stereo not drawn) | inconclusive: 3.66 µM [activator, partial curve, poor fit] |  |
| CCN(CC)CCn1c2c(c(SCC(=O)Nc3ccccc3Cl)nc1=O)CCC2 |  | inactive: -3.03% |

| SMILES | Potency | re-replication activation |
| --- | --- | --- |
| COC(=O)[C@@]12CCCN1[C@H](c1ccc(-c3ccc(OC)cc3)c(OC)c1)[C@@H]1C(=O)N(C)C(=O)[C@@H]12 | inconclusive: 4.61 µM [activator, full curve, poor fit] |  |
| Cc1c(NC(=O)/C(C#N)=C/c2ccc(-c3cccc(Cl)c3)o2)c(=O)n(-c2ccccc2)n1C | inconclusive: 29.1 µM [activator, single point] |  |
| O=C(NCCCCc1ccccc1)C12CN(Cc3ccccc3)CC1C(c1cccc([N+](=O)[O-])c1)=NO2 (stereo not drawn) | inconclusive: 3.66 µM [activator, full curve, poor fit] |  |
| COc1cc(/C(C)=N/N2CCN(c3ccccc3OC)CC2)ccc1O |  | inactive: -32.7% |
| O=C(Nc1ccccc1F)C1(c2ccccc2)CC1(Cl)Cl (stereo not drawn) | inconclusive: 23.1 µM [activator, partial curve, poor fit] |  |
| Brc1ccccc1CN1CCN(Cc2c[nH]c3ccccc23)CC1 |  | inactive: -121% |
| Cc1ccc2nc(-c3ccccn3)c(Nc3ccccc3C)n2c1 | active: 3.66 µM |  |
| Cc1c(/C=C(\C#N)C(=O)NCc2ccccc2)cc(C#N)n1C | inconclusive: 9.2 µM [activator, partial curve, poor fit] |  |
| Cc1cc(NC(=O)C2C3C(=O)N(CC4CCCO4)C(C(=O)NCc4ccccc4)C34C=CC2(C)O4)no1 (stereo not drawn) |  | inactive: 0.237% |
| Cc1cccc(C(=O)N/C(=C\c2ccco2)C(=O)N2CCCC2)c1 |  | inactive: -2.89% |
| CCOC(=O)Nc1ccc(NCc2ccc(F)cc2)nc1N | inconclusive: 11.6 µM [activator, single point] |  |
| O=C(NCc1cccs1)C1CCN(S(=O)(=O)c2cccc([N+](=O)[O-])c2)CC1 |  | inactive: -12.3% |
| Cc1cccc(NS(=O)(=O)c2ccc(C(=O)NCC(c3ccco3)N(C)C)cc2)c1C (stereo not drawn) |  | inactive: -0.635% |
| CCOc1ccc(S(=O)(=O)N2CN(c3cccc(C(C)=O)c3)c3nc4ccccc4nc32)cc1 |  | inactive: -0.0341% |
| Cc1nc(SCC(=O)OCc2ccccc2)c(C#N)c(-c2ccccc2)c1C(=O)Nc1ccccc1 | inconclusive: 25.9 µM [activator, single point] |  |
| CC1(C)Cc2c(cnn2-c2ccccc2)C(=O)/C1=N\NC(=O)c1ccccc1N | inconclusive: 29.1 µM [activator, single point] |  |
| CCn1c(C)c(C(=O)O)c2cc(OC)c3ccccc3c21 | inconclusive: 29.1 µM [activator, single point] |  |
| O=S1(=O)CCC(N=Cc2ccc(-c3ccc(Cl)cc3)o2)C1 (stereo not drawn) | inconclusive: 18.4 µM [activator, single point] |  |
| CCC(=O)Nc1cc(C(=O)OCC(=O)c2ccccc2)ccc1C |  | inactive: -183% |
| COc1cc(CN2CCN(c3cccc(C)c3C)CC2)cc(Br)c1O | inconclusive: 18.4 µM [activator, single point] |  |
| Cc1cc(C(=O)NNc2ccccc2F)no1 |  | inactive: 17.5% |
| O=[N+]([O-])c1ccc(OCCCCCN2CCOCC2)cc1 | inconclusive: 18.4 µM [activator, single point] |  |
| Cc1ncc(CO)c(/C=N/NC(=O)c2ccccc2Br)c1O | inconclusive: 29.1 µM [activator, single point] |  |

| SMILES | Potency | re-replication activation |
| --- | --- | --- |
| O=c1[nH]c(C2CCCN(S(=O)(=O)c3ccccc3)C2)nc2c1nnn2Cc1cccc(Cl)c1 (stereo not drawn) | inconclusive: 29.1 µM [activator, single point] |  |
| Cc1nc2sc(C(N)=O)c(N)c2c2c1CCCC2 | inconclusive: 14.6 µM [activator, single point] |  |
| C=CCOc1ccc(/C=N/N2C(=O)C(CC(=O)Nc3ccc(F)cc3F)SC2=NC)cc1 (stereo not drawn) | inconclusive: 20.6 µM [activator, single point] |  |
| CN1CCN(c2nc(-c3ccc(Cl)cc3Cl)nc3ccccc23)CC1 |  | inactive: -5.31% |
| COc1ccc(C2COc3cc(O)ccc3C2)c(OC)c1O (stereo not drawn) | inconclusive: 20.6 µM [activator, single point] |  |
| Cc1ccc(NC(=S)N2CCSC2c2cccs2)cc1 (stereo not drawn) | inconclusive: 6.51 µM [activator, single point] |  |
| Cc1ccc2c(c1)/C(=C/c1ccccc1C)C(=O)N2 | inconclusive: 20.6 µM [activator, partial curve, poor fit] |  |
| Cc1cc(C2=NNC(=NC3CCCCC3)SC2)c(C)n1-c1c(C)n(C)n(-c2ccccc2)c1=O |  | inactive: 10.8% |
| COc1ccc(-c2cc(C(=O)Nc3cccnc3Cl)no2)cc1OC | inconclusive: 16.4 µM [activator, partial curve, poor fit] |  |
| O=C(NCCc1ccccc1)c1ccc(CS(=O)(=O)c2ccc(Br)cc2)o1 |  | inactive: -4.66% |
| CCN1C(=O)C(CC(=O)Nc2ccc(Br)cc2)N(CCCc2ccccc2)C1=S (stereo not drawn) | inconclusive: 18.4 µM [activator, single point] |  |
| CCCC(CCC(=O)Nc1ccn(-c2ccccc2)n1)C(=O)O (stereo not drawn) | inconclusive: 29.1 µM [activator, single point] |  |
| c1csc(-c2ccc3ccccc3n2)c1 |  | inactive: -2.5% |
| CC1(c2ccc(Cl)c(Cl)c2)NC(=S)N2C1NC(=S)N2c1ccccc1 (stereo not drawn) |  | inactive: -6.01% |
| O=C(NCCCc1ccccc1)c1c(O)nc2sccn2c1=O | inconclusive: 29.1 µM [activator, single point] |  |
| Cc1cccc(-c2ccc(NC(=O)C3CCN(CC4CC4)CC3)cc2)c1 | inconclusive: 20.6 µM [activator, partial curve, poor fit] |  |
| COc1ccc(N2C(=O)C3[C@@H](C2=O)C2(Cl)C(Cl)=C(Cl)C3(Cl)C2(OC)OC)cc1 (stereo partly drawn) | inconclusive: 29.1 µM [activator, single point] |  |
| c1ccc2c(c1)OCCOCCOCCOCCOCCOc1ccccc1OCCOCCOCCO2 | inconclusive: 18.4 µM [activator, partial curve, poor fit] |  |
| COc1ccc(OC(C)C(=O)NC2CCCCCC2)cc1 (stereo not drawn) |  | inactive: 12.1% |
| C=C1CC2(CC(c3ccccc3)OC(c3ccccc3)C2)OC1=O (stereo not drawn) | inconclusive: 11.6 µM [activator, partial curve] |  |
| Cc1cc(C)c(S(=O)(=O)Nc2ccc3c(c2)CCC3)c(C)c1 | inconclusive: 32.6 µM [activator, partial curve, poor fit] |  |
| COc1ccc(C(=O)/C=C/c2ccc(OC3CSC3)cc2)cc1OC | inconclusive: 18.4 µM [activator, single point] |  |

Compounds from the list above with an NH in an aromatic ring:

| SMILES | Potency | re-replication activation |
| --- | --- | --- |
| C(=N\Nc1nn[nH]n1)/c1ccccc1 | inconclusive: 16.4 µM [activator, partial curve, poor fit] |  |
| O=C(Nc1nc2ccccc2[nH]1)c1ccccc1O | inconclusive: 29.1 µM [activator, single point] |  |
| Brc1ccccc1CN1CCN(Cc2c[nH]c3ccccc23)CC1 |  | inactive: -121% |
| O=c1[nH]c(C2CCCN(S(=O)(=O)c3ccccc3)C2)nc2c1nnn2Cc1cccc(Cl)c1 (stereo not drawn) | inconclusive: 29.1 µM [activator, single point] |  |
